Publication PMC5582868, “BLADE-ON-PETIOLE proteins act in an E3 ubiquitin ligase complex to regulate PHYTOCHROME INTERACTING FACTOR 4 abundance” (eLife, 2017)
No constants are given. Whether binding was seen depends on the method and setting. In cells and extracts the contact can be indirect. Some entries that bind do so weakly or less than the wild type. Where a sequence is shown, tags or fusion partners need not be part of it.

T1: myc-BOP2 (BLADE-ON-PETIOLE 2), expressed in protoplasts (Arabidopsis thaliana) (UniProt Q9ZVC2)
T1 sequence: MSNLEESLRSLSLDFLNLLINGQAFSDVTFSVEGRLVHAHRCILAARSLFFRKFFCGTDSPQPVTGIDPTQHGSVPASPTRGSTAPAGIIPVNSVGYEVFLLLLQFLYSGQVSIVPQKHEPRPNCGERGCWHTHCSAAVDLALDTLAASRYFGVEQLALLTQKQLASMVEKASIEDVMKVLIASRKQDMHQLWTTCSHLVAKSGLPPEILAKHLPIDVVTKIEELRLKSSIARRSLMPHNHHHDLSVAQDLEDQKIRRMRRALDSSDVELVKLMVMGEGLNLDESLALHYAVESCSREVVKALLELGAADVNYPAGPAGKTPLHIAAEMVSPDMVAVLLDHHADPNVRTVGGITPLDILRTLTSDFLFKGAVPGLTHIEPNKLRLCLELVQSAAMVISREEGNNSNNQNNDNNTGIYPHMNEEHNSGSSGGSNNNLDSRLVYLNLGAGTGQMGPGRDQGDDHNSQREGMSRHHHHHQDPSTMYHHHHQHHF

T2: myc-BOP1 (BLADE-ON-PETIOLE 1) (Arabidopsis thaliana) (UniProt Q9M1I7)
T2 sequence: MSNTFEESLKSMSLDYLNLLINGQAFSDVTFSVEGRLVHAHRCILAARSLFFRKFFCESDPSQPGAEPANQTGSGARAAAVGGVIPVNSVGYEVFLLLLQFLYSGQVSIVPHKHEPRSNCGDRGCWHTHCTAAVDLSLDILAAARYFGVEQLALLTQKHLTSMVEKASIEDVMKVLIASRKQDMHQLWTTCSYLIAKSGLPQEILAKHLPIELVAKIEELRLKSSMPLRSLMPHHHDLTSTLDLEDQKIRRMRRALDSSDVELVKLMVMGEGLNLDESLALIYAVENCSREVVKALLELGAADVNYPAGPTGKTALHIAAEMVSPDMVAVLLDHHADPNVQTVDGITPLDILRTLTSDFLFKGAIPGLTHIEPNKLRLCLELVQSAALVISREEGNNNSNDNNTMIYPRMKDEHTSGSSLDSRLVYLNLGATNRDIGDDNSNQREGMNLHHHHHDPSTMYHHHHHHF

T3: myc-BOP2 in 35S::myc-BOP2 transgenic plants (Arabidopsis thaliana) (UniProt Q9ZVC2)
T3 sequence: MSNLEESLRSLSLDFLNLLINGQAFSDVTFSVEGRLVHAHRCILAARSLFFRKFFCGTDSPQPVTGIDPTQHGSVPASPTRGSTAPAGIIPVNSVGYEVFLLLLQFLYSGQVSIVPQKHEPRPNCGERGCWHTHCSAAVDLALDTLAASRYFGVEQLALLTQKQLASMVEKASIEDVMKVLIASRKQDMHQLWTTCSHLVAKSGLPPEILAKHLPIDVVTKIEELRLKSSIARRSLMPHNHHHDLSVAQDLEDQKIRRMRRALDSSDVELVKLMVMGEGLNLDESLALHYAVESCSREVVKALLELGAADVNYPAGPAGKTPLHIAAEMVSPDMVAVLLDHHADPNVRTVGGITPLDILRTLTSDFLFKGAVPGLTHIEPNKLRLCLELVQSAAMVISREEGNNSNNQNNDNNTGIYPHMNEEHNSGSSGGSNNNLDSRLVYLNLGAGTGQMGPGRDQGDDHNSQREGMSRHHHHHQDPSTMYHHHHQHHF


What was measured:
[1] = biological target: T1, myc-BOP2 (BLADE-ON-PETIOLE 2), expressed in protoplasts (Arabidopsis thaliana); test: co-IP; Arabidopsis protoplasts co-expressing HA-CUL3A, myc-BOP2 and HA-PIF4 together; anti-myc immunoprecipitation; both HA proteins detected at once with anti-HA
[2] = biological target: T2, myc-BOP1 (BLADE-ON-PETIOLE 1) (Arabidopsis thaliana); test: co-IP; Arabidopsis protoplasts co-transfected with one myc-tagged BOP and one HA-tagged partner; anti-myc (9E10) immunoprecipitation on Protein G-Sepharose, 2 hr at 4°C, EB buffer with 150 mM NaCl and 0.2 mg/ml BSA; blot with anti-HA
[3] = biological target: T1, myc-BOP2 (BLADE-ON-PETIOLE 2), expressed in protoplasts (Arabidopsis thaliana); test: as above
[4] = biological target: T3, myc-BOP2 in 35S::myc-BOP2 transgenic plants (Arabidopsis thaliana); test: co-IP; extract of 4-day-old dark-grown 35S::myc-BOP2 seedlings (Col-0 as negative control); anti-myc immunoprecipitation; native CUL3A detected with anti-AtCul3 polyclonal antibody

| binding [1] | binding [2] | binding [3] | binding [4] | Binder |
| --- | --- | --- | --- | --- |
| binds | binds | binds |  | HA-CUL3A (CULLIN3A), expressed in protoplasts (protein, UniProt Q9ZVH4 1-732) MSNQKKRNFQIEAFKHRVVVDPKYADKTWQILERAIHQIYNQDASGLSFEELYRNAYNMVLHKFGEKLYTGFIATMTSHLKEKSKLIEAAQGGSFLEELNKKWNEHNKALEMIRDILMYMDRTYIESTKKTHVHPMGLNLWRDNVVHFTKIHTRLLNTLLDLVQKERIGEVIDRGLMRNVIKMFMDLGESVYQEDFEKPFLDASSEFYKVESQEFIESCDCGDYLKKSEKRLTEEIERVAHYLDAKSEEKITSVVEKEMIANHMQRLVHMENSGLVNMLLNDKYEDLGRMYNLFRRVTNGLVTVRDVMTSHLREMGKQLVTDPEKSKDPVEFVQRLLDERDKYDKIINTAFGNDKTFQNALNSSFEYFINLNARSPEFISLFVDDKLRKGLKGITDVDVEVILDKVMMLFRYLQEKDVFEKYYKQHLAKRLLSGKTVSDDAERSLIVKLKTECGYQFTSKLEGMFTDMKTSEDTMRGFYGSHPELSEGPTLIVQVLTTGSWPTQPAVPCNLPAEVSVLCEKFRSYYLGTHTGRRLSWQTNMGTADIKAIFGKGQKHELNVSTFQMCVLMLFNNSDRLSYKEIEQATEIPAADLKRCLQSLACVKGKNVIKKEPMSKDIGEEDLFVVNDKFTSKFYKVKIGTVVAQKETEPEKQETRQRVEEDRKPQIEAAIVRIMKSRKILDHNNIIAEVTKQLQPRFLANPTEIKKRIESLIERDFLERDSTDRKLYRYLA |
|  |  |  | binds | CUL3A, native protein of Arabidopsis seedlings (protein, UniProt Q9ZVH4 1-732) MSNQKKRNFQIEAFKHRVVVDPKYADKTWQILERAIHQIYNQDASGLSFEELYRNAYNMVLHKFGEKLYTGFIATMTSHLKEKSKLIEAAQGGSFLEELNKKWNEHNKALEMIRDILMYMDRTYIESTKKTHVHPMGLNLWRDNVVHFTKIHTRLLNTLLDLVQKERIGEVIDRGLMRNVIKMFMDLGESVYQEDFEKPFLDASSEFYKVESQEFIESCDCGDYLKKSEKRLTEEIERVAHYLDAKSEEKITSVVEKEMIANHMQRLVHMENSGLVNMLLNDKYEDLGRMYNLFRRVTNGLVTVRDVMTSHLREMGKQLVTDPEKSKDPVEFVQRLLDERDKYDKIINTAFGNDKTFQNALNSSFEYFINLNARSPEFISLFVDDKLRKGLKGITDVDVEVILDKVMMLFRYLQEKDVFEKYYKQHLAKRLLSGKTVSDDAERSLIVKLKTECGYQFTSKLEGMFTDMKTSEDTMRGFYGSHPELSEGPTLIVQVLTTGSWPTQPAVPCNLPAEVSVLCEKFRSYYLGTHTGRRLSWQTNMGTADIKAIFGKGQKHELNVSTFQMCVLMLFNNSDRLSYKEIEQATEIPAADLKRCLQSLACVKGKNVIKKEPMSKDIGEEDLFVVNDKFTSKFYKVKIGTVVAQKETEPEKQETRQRVEEDRKPQIEAAIVRIMKSRKILDHNNIIAEVTKQLQPRFLANPTEIKKRIESLIERDFLERDSTDRKLYRYLA |
